The other results are listed elsewhere or left out.

In the assay the target is T1, OsSMF1 (Oryza sativa, UniProt Q6ZLB0 1-436).
T1 sequence: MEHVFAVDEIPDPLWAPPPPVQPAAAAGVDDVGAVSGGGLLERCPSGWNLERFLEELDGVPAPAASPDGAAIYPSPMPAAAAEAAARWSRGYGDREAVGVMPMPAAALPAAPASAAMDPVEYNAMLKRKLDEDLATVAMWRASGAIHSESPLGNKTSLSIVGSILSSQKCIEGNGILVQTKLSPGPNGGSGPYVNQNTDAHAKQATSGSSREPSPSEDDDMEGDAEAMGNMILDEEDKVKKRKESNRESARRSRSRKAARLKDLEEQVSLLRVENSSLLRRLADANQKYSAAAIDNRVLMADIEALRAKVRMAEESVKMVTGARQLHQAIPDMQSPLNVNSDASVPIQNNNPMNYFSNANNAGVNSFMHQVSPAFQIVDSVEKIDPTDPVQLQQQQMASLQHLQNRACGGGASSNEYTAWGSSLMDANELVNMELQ
The experiment in a line: protein-binding microarray (RPBM); PBS, 2% BSA, 51.3 ng/ul salmon testes DNA, 50 uM zinc acetate, 200 nM TF, 25 C, 1 h; high values mean tight binding. Conditions: protein: recombinant; tags: N-terminal polyhistidine and DsRed monomer fusion (pET32a); chain copies: 2; label: CyDye5-dUTP incorporated in the synthesized complementary strand; 3' TTTTT single-stranded linker to array surface; dsDNA, one strand shown. The procedure, abridged: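 Transcription factors were each fused at the N-terminus to a polyhistidine tag plus DsRed and expressed in E. coli BL21-CodonPlus before Ni–NTA purification. Binding to a double-stranded custom Agilent array was carried out with 200 nM protein at 25 °C for 1 h in PBS, 2% BSA, salmon testes DNA and 50 µM zinc acetate. The binding signal is per-feature fluorescence intensity, in arbitrary units, on an Axon 4000B scanner.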
Consider “GACGCGGAGAACTCGCCGGCGGGCGGCGCCGTCATCAGAACGGAGTCACCTAGTGCAG”, for which the binding signal was 6720 fluorescence intensity (a.u.).

“TCACGGTGGTTGTGGTGGTCGGCGTCGTCCTCGCGCTCGCCGGAGTCACCTAGTGCAG”: the binding signal is 18600 fluorescence intensity (a.u.).

Turning to “AATCCCAACTAAGCTCTCTCGTTCTCTCAGTCTGTCAACTCGGAGTCACCTAGTGCAG”, the binding signal was 3710 fluorescence intensity (a.u.).

As for “ACCCTCAAATTATTTCCATAAACTCAGTTCTATCCATCACCGGAGTCACCTAGTGCAG”, the binding signal was 16500 fluorescence intensity (a.u.).

On to “TCCAGCCCGACGAGGTGTCGGCGGCTATCGTCACCTGCGGCGGAGTCACCTAGTGCAG”, for which the binding signal is 3660 fluorescence intensity (a.u.).

With “ACCGCGCACCAACCCACCGCACGCCGCCCACCACGTGCTGCGGAGTCACCTAGTGCAG”, the binding signal was 3320 fluorescence intensity (a.u.).

As to “ACGTGCTTCTGACTAAAAGAGAGAAATTTGTGTGCTGTTTCGGAGTCACCTAGTGCAG”, the binding signal is 3160 fluorescence intensity (a.u.).

Consider “ACTCCATTTGCTACATGCACTTGTCACGCCACTACTACTCCGGAGTCACCTAGTGCAG”, for which the binding signal is 3450 fluorescence intensity (a.u.).

On to “CGTGTGCCACCCGCTTGCCCCTTCACCGCGCCACACGTACCGGAGTCACCTAGTGCAG”, for which the binding signal is 4350 fluorescence intensity (a.u.).

Consider “TCACTTCGAGCCATACCATTAATTTATACACGTAATCAACCGGAGTCACCTAGTGCAG”, for which the binding signal was 6930 fluorescence intensity (a.u.).

With “CTCGTGTGGTGGCCTGCGTTGATTCCCGACGTGGCGCGAGCGGAGTCACCTAGTGCAG”, the binding signal was 22700 fluorescence intensity (a.u.).

In the case of “CATCAACCCCTCAACCTTGCCACGTCAGTGCCAAATCAACCGGAGTCACCTAGTGCAG”, the binding signal was 12500 fluorescence intensity (a.u.).

For “CTTTGGATTCTGGTTAAAGAATTCGAATGGGAACTCTTAGCGGAGTCACCTAGTGCAG”, the binding signal is 3400 fluorescence intensity (a.u.).

“AACTGAATCCCATCCACTCCTTTATCATCATCACCATTTCCGGAGTCACCTAGTGCAG”: the binding signal was 3370 fluorescence intensity (a.u.).

Turning to “TGACGGAAAACGTGACGGCGGTGGCATGTTTCTAATTTTGCGGAGTCACCTAGTGCAG”, the binding signal is 3160 fluorescence intensity (a.u.).

As for “CTCTTAGCAATGCTGACTGGTCCGATCAAAGTCAACGGTTCGGAGTCACCTAGTGCAG”, the binding signal was 4660 fluorescence intensity (a.u.).

For “ATTCTGTCCACGTGTTAGGATCCGAGGGCAACCAGCGAATCGGAGTCACCTAGTGCAG”, the binding signal was 5130 fluorescence intensity (a.u.).

For the sequence “CCTTACTATGTGTGTCATCCAACATCTCTATGATAAATTTCGGAGTCACCTAGTGCAG”, the binding signal is 4660 fluorescence intensity (a.u.).

Turning to “TCGTCTGCTGCTCCGCGAAGAAGGGCCAGCTCAGCATCGGCGGAGTCACCTAGTGCAG”, the binding signal was 10500 fluorescence intensity (a.u.).

“GGCTAAATGCTGAGGTGGAGAAGAGAAGAGAGGAGAAGCGCGGAGTCACCTAGTGCAG”: the binding signal was 3480 fluorescence intensity (a.u.).

Regarding “TGCTCGTGCCGCGCCACCGTGTTCCTCTCGGACCACGTGTCGGAGTCACCTAGTGCAG”, the binding signal is 5480 fluorescence intensity (a.u.).

As to “TAGATGCAGATAATGAAGATCTGTCATCATCTAGATTACCCGGAGTCACCTAGTGCAG”, the binding signal was 4420 fluorescence intensity (a.u.).

Turning to “CTGTTGCTTACTTGCGTGTCATCCAGAGTCATAGACGACTCGGAGTCACCTAGTGCAG”, the binding signal was 6720 fluorescence intensity (a.u.).

As for “GGTGTACCCCACGTGTTAGGTGACGTGACGTATCGGTTTTCGGAGTCACCTAGTGCAG”, the binding signal was 13000 fluorescence intensity (a.u.).

Take “AGACCAGTGGAAACTAGCATAACAATCATGTCACCCAATGCGGAGTCACCTAGTGCAG”: the binding signal was 3390 fluorescence intensity (a.u.).

On to “GCCGAGCGGCCGAATTCCGGTGGCTTCGACTTCGATCGGGCGGAGTCACCTAGTGCAG”, for which the binding signal was 3290 fluorescence intensity (a.u.).

In the case of “GGAGAAGTTCCAACGCATCGATGACTGTTGATGGTCTTTTCGGAGTCACCTAGTGCAG”, the binding signal was 3170 fluorescence intensity (a.u.).

As for “TGGGATAGGAATGGGGAATTGAGGAAAGAACTCCCTTCTTCGGAGTCACCTAGTGCAG”, the binding signal was 3610 fluorescence intensity (a.u.).

As for “TATGGGTTTGCAGCTTTCACAGTGCAGCCACGGGACGTGGCGGAGTCACCTAGTGCAG”, the binding signal is 5200 fluorescence intensity (a.u.).

For the sequence “CTGACCTTAGACACCTCAGCGCCACGTCAATTGGCGCTGACGGAGTCACCTAGTGCAG”, the binding signal was 10900 fluorescence intensity (a.u.).

Regarding “CACCGTTGGCGCACAGGTGTCACCGCCTTGGCCGACCACGCGGAGTCACCTAGTGCAG”, the binding signal is 4580 fluorescence intensity (a.u.).

Regarding “ACAAACTTATCACTGAGCTCACAAGTCTAATAATTGCTAACGGAGTCACCTAGTGCAG”, the binding signal was 3260 fluorescence intensity (a.u.).

For “CATCCCTGGTGCTCTTGGTCTCTTGGCAGCTGTGGAAGGACGGAGTCACCTAGTGCAG”, the binding signal is 43000 fluorescence intensity (a.u.).

On to “GTCAAGAAGTTAATGGCGTCATACATTAAAATGCGGAGGGCGGAGTCACCTAGTGCAG”, for which the binding signal was 4220 fluorescence intensity (a.u.).

Take “GTGACCGGAGACGCTATTCGAGTTATTACTACTACCCGGTCGGAGTCACCTAGTGCAG”: the binding signal is 11200 fluorescence intensity (a.u.).

In the case of “CTTCAGAGGATGCTGCTAAGCGCGTGGGACTTGATCTCAACGGAGTCACCTAGTGCAG”, the binding signal is 3380 fluorescence intensity (a.u.).

With “GACAGATGTGCTGAGTGCTGACGTGGTTAAACTAACCTCGCGGAGTCACCTAGTGCAG”, the binding signal is 16100 fluorescence intensity (a.u.).

As to “ACATAGGAAGCAACCTAACTGACGCGTGACTTAGGTCCTGCGGAGTCACCTAGTGCAG”, the binding signal was 4590 fluorescence intensity (a.u.).

For the sequence “CGGCCCATCCCATCTCCAAGTCCAACGCAGCAGCTCGCCCCGGAGTCACCTAGTGCAG”, the binding signal is 4910 fluorescence intensity (a.u.).

For the sequence “TTCATGACAAGTCCCTGTTGGCTGTTGCAATCATTGTAGTCGGAGTCACCTAGTGCAG”, the binding signal was 3590 fluorescence intensity (a.u.).

As to “TTAGAAAATTGACTCTGACTTGGCAGCATAATTGAGACTACGGAGTCACCTAGTGCAG”, the binding signal was 5900 fluorescence intensity (a.u.).

In the case of “TCATCGTCTCCGACGCCGACGAACTCCCACTCACTAGTAGCGGAGTCACCTAGTGCAG”, the binding signal was 3450 fluorescence intensity (a.u.).

Consider “TTCTTGTGGTCTACTGGCCAAAATTTTGACTCCTTCAGTTCGGAGTCACCTAGTGCAG”, for which the binding signal is 3270 fluorescence intensity (a.u.).

As to “CTATTTAGCTCATTGACAAATCCGATGTGGCAGTTTTATCCGGAGTCACCTAGTGCAG”, the binding signal is 4950 fluorescence intensity (a.u.).

Regarding “GCCGCCGGTAGAATCCATGGTGCGGATTCGCGCCAGCGTGCGGAGTCACCTAGTGCAG”, the binding signal is 13700 fluorescence intensity (a.u.).

Regarding “GGATTTAAATATCTGACATCACTACAAATTTTACGCCTCTCGGAGTCACCTAGTGCAG”, the binding signal was 8080 fluorescence intensity (a.u.).

Take “TTACCAAAATTTAGTCGCACATGAGTCGGACAGTTGGAACCGGAGTCACCTAGTGCAG”: the binding signal is 3570 fluorescence intensity (a.u.).

As for “AGTGTGCGTGTGTCGTGAGCACCGGCATTTCAGCCGTATTCGGAGTCACCTAGTGCAG”, the binding signal was 3350 fluorescence intensity (a.u.).

Regarding “TTCCTCTCCCGACCCTGACGTGGTTCACTTTGAGTATCGCCGGAGTCACCTAGTGCAG”, the binding signal is 6090 fluorescence intensity (a.u.).

For “AGGAATGGATCCGAGAGAAGGAATCCTAGTCATGTGTTTGCGGAGTCACCTAGTGCAG”, the binding signal was 6740 fluorescence intensity (a.u.).

Take “TCCTGCTGCTGCGGTCGCTGTCAGCTCGTCCTCATCCTCCCGGAGTCACCTAGTGCAG”: the binding signal was 3590 fluorescence intensity (a.u.).

As for “GCCGGTCTTTCCGTCACCTCGGTACGTGTTCAATATGTTGCGGAGTCACCTAGTGCAG”, the binding signal was 4530 fluorescence intensity (a.u.).

On to “GCTTCCCCACAGGACACGTCACCCTCCCTCCTGCCCCTACCGGAGTCACCTAGTGCAG”, for which the binding signal is 38200 fluorescence intensity (a.u.).

“TTCTATTTTCAATTCCTTTGATGACTAGGCTACCACGTCACGGAGTCACCTAGTGCAG”: the binding signal is 11300 fluorescence intensity (a.u.).

The values are drawn from PMC7819943, “Rice protein-binding microarrays: a tool to detect cis-acting elements near promoter regions in rice”.
